Results reported in patent CN114891108A.
Results are given in words; binding and its absence hold for the method and conditions named. Some results given as binding are weak or reduced against the parent protein; the word gives no strength.

By UniProt entry, the sequences of proteins in these tests, tags left out. Residues count along the entry.
UniProt Q02223, residues 1-54: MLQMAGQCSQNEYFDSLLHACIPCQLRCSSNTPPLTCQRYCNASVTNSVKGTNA

Target: BCMA抗原(Acro，CD5-H52H5) (UniProt Q02223)
Test: BLI (Octet), IgG on sensor, BCMA antigen 100 to 1.563 nM

B1: mAb 41 (Fc fusion, not shown: a dimerising Fc or GST)
chain: QSVLTQPPSVSGAPGQTVTISCTGSSSNIGAGYIVNWYQQLPGTAPKLLIYFTGNRPSGVPGRFSGSRSGTSASLAITRLQAEDEADYYCQSFDRSLGGYVFGTATKVTVLGSRGGGGSGGGGSGGGGSLEMAQLQLQESGPGLVKPSETLSLTCTVSGGSISSSSYYWGWIRQPPGKGLEWIGSISYSGSTYYNPSLKSRVTISVDTSKNQFSLKLSSVTAADTAVYYCARDRGDTILDVWGQGTMVTVSS
With B1 the binding was “binds”.
